Experimental data taken from publication PMC9688295.
Results are given in words; binding and its absence hold for the method and conditions named. In cells and extracts the contact can be indirect. Some binding calls cover weakened binding; strength is not graded here.

By UniProt entry, the sequences of proteins in these tests, tags left out. Residues count along the entry.
UniProt P62813, residues 28-455: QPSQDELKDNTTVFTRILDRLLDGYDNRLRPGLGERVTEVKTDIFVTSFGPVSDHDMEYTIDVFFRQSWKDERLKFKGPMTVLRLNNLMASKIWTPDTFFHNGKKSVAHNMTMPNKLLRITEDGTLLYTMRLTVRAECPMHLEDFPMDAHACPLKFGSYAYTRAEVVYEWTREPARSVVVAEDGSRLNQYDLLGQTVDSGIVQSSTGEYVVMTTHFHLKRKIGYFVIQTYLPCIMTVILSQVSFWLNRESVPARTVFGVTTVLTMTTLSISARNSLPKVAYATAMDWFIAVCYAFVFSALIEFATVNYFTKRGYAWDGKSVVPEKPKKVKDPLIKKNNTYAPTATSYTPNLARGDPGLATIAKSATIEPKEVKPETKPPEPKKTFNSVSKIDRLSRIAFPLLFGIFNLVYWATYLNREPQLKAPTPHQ

Target: γ-aminobutyric acid type A receptor α1 (rat (endogenous in medullary dorsal horn tissue)) (UniProt P62813)
Assay: co-IP; primary antibody (rabbit anti-GABARα1, or normal IgG as control) on Protein A + G Agarose, incubated 24 h at 4 °C with ≥500 µg lysate protein of medullary dorsal horn tissue of epilepsy-migraine comorbid rats; washed with cold GLB+ buffer; precipitates immunoblotted for GABAARα1, TLR4 and GAPDH

- binding: binds
B1: Toll-like receptor 4 (receptor, UniProt Q9QX05 26-835)
chain: NPCIEVLPNITYQCMDQNLSKIPHDIPYSTKNLDLSFNPLKILRSYSFTNFSQLQWLDLSRCEIETIEDKAWHGLNQLSTLVLTGNPIKSFSPGSFSGLTNLENLVAVETKMTSLEGFHIGQLISLKKLNVAHNLIHSFKLPEYFSNLTNLEHVDLSYNYIQTISVKDLQFLRENPQVNLSLDLSLNPIDSIQAQAFQGIRLHELTLRSNFNSSNVLKMCLQNMTGLHVHRLILGEFKNERNLESFDRSVMEGLCNVSIDEFRLTYINHFSDDIYNLNCLANISAMSFTGVHIKHIADVPRHFKWQSLSIIRCHLKPFPKLSLPFLKSWTLTTNREDISFGQLALPSLRYLDLSRNAMSFRGCCSYSDFGTNNLKYLDLSFNGVILMSANFMGLEELEYLDFQHSTLKKVTEFSVFLSLEKLLYLDISYTNTKIDFDGIFLGLISLNTLKMAGNSFKDNTLSNVFTNTTNLTFLDLSKCQLEQISRGVFDTLYRLQLLNMSHNNLLFLDPSHYKQLYSLRTLDCSFNRIETSKGILQHFPKSLAVFNLTNNSVACICEYQNFLQWVKDQKMFLVNVEQMKCASPIDMKASLVLDFTNSTCYIYKTIISVSVVSVLVVATVAFLIYHFYFHLILIAGCKKYSRGESIYDAFVIYSSQNEDWVRNELVKNLEEGVPRFQLCLHYRDFIPGVAIAANIIQEGFHKSRKVIVVVSRHFIQSRWCIFEYEIAQTWQFLSSRSGIIFIVLEKVEKSLLRQQVELYRLLSRNTYLEWEDNALGRHIFWRRLKKALLDGKALNPDETSEEEQEATTLT
